According to patent publication US20120213774A1:
These are yes or no findings as the source states them, for the method shown. Some binding calls cover weakened binding; strength is not graded here.

The chains behind the UniProt entries cited, without tags or fusion partners. Residues count along the entry.
UniProt Q01638, residues 19-328: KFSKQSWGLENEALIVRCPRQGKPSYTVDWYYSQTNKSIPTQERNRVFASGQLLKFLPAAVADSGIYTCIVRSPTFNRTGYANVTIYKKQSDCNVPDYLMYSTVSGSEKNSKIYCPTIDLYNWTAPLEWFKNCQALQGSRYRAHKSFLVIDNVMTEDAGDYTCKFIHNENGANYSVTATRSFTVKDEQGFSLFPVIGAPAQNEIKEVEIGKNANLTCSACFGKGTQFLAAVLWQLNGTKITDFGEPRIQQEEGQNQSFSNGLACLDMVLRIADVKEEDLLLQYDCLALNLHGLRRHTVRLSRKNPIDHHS

Molecular target: human IL33 Receptor ST2, His-tagged (ST2 wildtype) (human) (UniProt Q01638)
Assay: SPR (BIAcore T100, 25 C), His-tagged ST2 captured by Penta-His, antibody at 100 nM

binding: binds
B1: Antibody ra170 (rabbit IgG1) (antibody, V domains shown)
VH: QSVEESGGRLVTPGTPLTLTCTVSGFSLSSHDMSWVRQAPGKGLEWIGYIWSDDNTYYASWAKGRFTISKTSTTVDLKITSPTTEDTATYFCARDQYRSSGVSDYDIWGPGTLVTVSS
VL: AAVLTQTPSPVSAAVGGTVTISCQSSQSVGNNNDLAWYQQKPGQPPKILIYKASTLASGVPSRFEGSGSGTQFTLTISDVQCDDAATYYCLGGYDDDADNTFGGGTEVVVK
